Source: article PMC6168554

The chains behind the UniProt entries cited, without tags or fusion partners. Where a name states a change or a piece, a line headed by the entry shows the natural chain unless it says otherwise.
UniProt Q5NC57: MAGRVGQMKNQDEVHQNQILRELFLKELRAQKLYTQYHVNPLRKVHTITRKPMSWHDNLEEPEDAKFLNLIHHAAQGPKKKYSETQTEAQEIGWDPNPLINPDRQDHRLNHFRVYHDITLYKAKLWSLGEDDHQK

Target: tandem StrepII-Flag-tagged FAM183b (4 exon variant) (mouse) (UniProt Q5NC57)
Assay: affinity purification with mass spectrometry; N- and C-terminally tandem StrepII-Flag-tagged FAM183b transiently expressed in HEK293T cells; FAM183b complexes isolated and analysed by LC-MS/MS

B1: NUP93 (endogenous, HEK293T) (protein, UniProt Q8N1F7 1-819)
chain: MDTEGFGELLQQAEQLAAETEGISELPHVERNLQEIQQAGERLRSRTLTRTSQETADVKASVLLGSRGLDISHISQRLESLSAATTFEPLEPVKDTDIQGFLKNEKDNALLSAIEESRKRTFGMAEEYHRESMLVEWEQVKQRILHTLLASGEDALDFTQESEPSYISDVGPPGRSSLDNIEMAYARQIYIYNEKIVNGHLQPNLVDLCASVAELDDKSISDMWTMVKQMTDVLLTPATDALKNRSSVEVRMEFVRQALAYLEQSYKNYTLVTVFGNLHQAQLGGVPGTYQLVRSFLNIKLPAPLPGLQDGEVEGHPVWALIYYCMRCGDLLAASQVVNRAQHQLGEFKTWFQEYMNSKDRRLSPATENKLRLHYRRALRNNTDPYKRAVYCIIGRCDVTDNQSEVADKTEDYLWLKLNQVCFDDDGTSSPQDRLTLSQFQKQLLEDYGESHFTVNQQPFLYFQVLFLTAQFEAAVAFLFRMERLRCHAVHVALVLFELKLLLKSSGQSAQLLSHEPGDPPCLRRLNFVRLLMLYTRKFESTDPREALQYFYFLRDEKDSQGENMFLRCVSELVIESREFDMILGKLENDGSRKPGVIDKFTSDTKPIINKVASVAENKGLFEEAAKLYDLAKNADKVLELMNKLLSPVVPQISAPQSNKERLKNMALSIAERYRAQGISANKFVDSTFYLLLDLITFFDEYHSGHIDRAFDIIERLKLVPLNQESVEERVAAFRNFSDEIRHNLSEVLLATMNILFTQFKRLKGTSPSSSSRPQRVIEDRDSQLRSQARTLITFAGMIPYRTSGDTNARLVQMEVLMN
binding: binds

These are yes or no findings as the source states them, for the method shown. In cells and extracts the contact can be indirect. These calls come from enrichment with a bait or labelling near it, and not all partners need be listed.
